# Results deposited as PubChem BioAssay AID493246 (Drosophila RNAi Screening Center, 2011).
# Purpose: 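Identify essential fly genes by loss of cell viability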 (primary screen)
# System: Drosophila Kc and S2R+ cells
# Knock-down reagent: long dsRNA against Drosophila genes
# Detection: 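Cell number per well after knock-down, printed as raw plate values; calls were based on per-plate z-scores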
# Direction: Kc cell number and S2R+ cell number: higher = more cells remaining
# Call rule: 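Active when the per-plate z-score of cell number is 3 or more in the direction of fewer cells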
# The deposit covers about 21,000 reagents; below is a random part of those that have a named target and a result. In the full data, 429 (2%) are marked active. 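Values are raw and not normalised between plates; calls rest on per-plate z-scores that were not deposited.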 A number with no mark means an inactive call. Names joined by + are all predicted targets of the reagent. Reagent sequences are not shown. The record does not give: the amount of reagent, the time to read-out.
predicted target,amplicon,"Kc cell number, rep 1","Kc cell number, rep 2","S2R+ cell number, rep 1","S2R+ cell number, rep 2"
l(1)G0469 (lethal (1) G0469),DRSC19412,6.31e5,,9.24e5,
l(1)G0469 (lethal (1) G0469),DRSC19462,1.46e6,1.49e6,1.05e6,1.09e6
CG14182,DRSC10181,1.37e6,1.31e6,1.35e6,1.40e6
CG42361,DRSC04391,1.50e6,1.57e6,1.29e6,1.45e6
CG3045,DRSC04331,1.41e6,1.49e6,1.03e6,1.14e6
CG5888,DRSC01929,1.29e6,1.39e6,1.33e6,1.37e6
slx1 (nuclease slx1),DRSC12290,1.52e6,1.53e6,1.39e6,1.48e6
CG15822,DRSC08482,1.45e6,1.29e6,9.92e5,1.28e6
CG15822,DRSC08483,1.44e6,1.26e6,9.16e5,1.19e6
cact (cactus),DRSC03501,1.35e6,1.42e6,1.13e6,1.16e6
CG34002,DRSC09512,1.48e6,1.41e6,1.00e6,1.17e6
CG34002,DRSC11953,1.55e6,1.61e6,1.05e6,1.28e6
CG32053,DRSC10683,1.25e6,1.34e6,1.20e6,9.87e5
Lim1 (LIM homeobox 1),DRSC17752,5.56e5,,8.47e5,
Lim1 (LIM homeobox 1),DRSC18677,1.43e6,1.63e6,1.06e6,1.23e6
CG31467,DRSC16048,1.43e6,1.48e6,1.22e6,1.27e6
CG9483,DRSC03226,8.82e5,1.00e6,8.83e5,8.36e5
Gbeta76C (G protein beta subunit 76C),DRSC11174,1.81e6,1.77e6,1.21e6,1.33e6
BNIP3,DRSC11761,1.40e6,1.41e6,1.31e6,1.36e6
tplus3a + tplus3b,DRSC03687,4.82e5,,8.11e5,
Hesr (HES-related),DRSC19965,1.40e6,1.48e6,1.10e6,1.16e6
CG12522,DRSC09088,1.61e6,1.68e6,1.15e6,1.33e6
Mlp84B (Muscle LIM protein at 84B),DRSC12596,1.47e6,1.52e6,1.30e6,1.43e6
yellow-d2,DRSC04591,1.62e6,1.81e6,1.42e6,1.49e6

Taken from above.
CG34002 [DRSC09512], Kc cell number, rep 1 = 1.48e6
Entry of CG3045 [DRSC04331] in “S2R+ cell number, rep 2”: 1.14e6
slx1 (nuclease slx1) [DRSC12290], S2R+ cell number, rep 2 = 1.48e6
CG34002 [DRSC11953], Kc cell number, rep 2 → 1.61e6
For “Kc cell number, rep 1”, CG12522 [DRSC09088] is entered as 1.61e6
CG15822 [DRSC08482], S2R+ cell number, rep 1 → 9.92e5

The results go on:
predicted target,amplicon,"Kc cell number, rep 1","Kc cell number, rep 2","S2R+ cell number, rep 1","S2R+ cell number, rep 2"
Sirt1 (Sirtuin 1),DRSC03435,1.28e6,1.35e6,1.16e6,1.27e6
CG14011,DRSC02343,1.47e6,1.31e6,1.07e6,1.24e6
kdn (knockdown),DRSC18328,1.72e6,1.68e6,1.03e6,1.21e6
apn (apnoia),DRSC15124,1.51e6,1.56e6,1.21e6,1.29e6
Gapvd1 (GTPase activating protein and VPS9 domains 1),DRSC19752,1.62e6,1.54e6,1.12e6,1.31e6
CG14154,DRSC10156,1.46e6,1.45e6,1.24e6,1.27e6
CG3640,DRSC04399,1.72e6,1.79e6,1.42e6,1.66e6
Ada (Adenosine deaminase),DRSC14463,1.87e6,2.16e6,1.27e6,1.45e6
CG9154,DRSC03150,1.33e6,1.32e6,6.66e5,9.54e5
CG6834,DRSC16125,1.63e6,1.67e6,1.25e6,1.34e6
Or83c (Odorant receptor 83c),DRSC12359,1.50e6,1.55e6,1.31e6,1.36e6
l(2)efl (lethal (2) essential for life),DRSC04698,1.34e6,1.45e6,1.16e6,1.25e6
Jhbp16 (Juvenile hormone binding protein 16),DRSC15039,1.43e6,1.49e6,9.36e5,9.86e5
Lcp9 (Larval cuticle protein 9),DRSC04287,1.74e6,1.82e6,1.17e6,1.36e6
CG13227,DRSC06347,1.61e6,1.61e6,1.29e6,1.36e6
CCAP-R (Crustacean cardioactive peptide receptor),DRSC14891,1.44e6,1.45e6,9.86e5,1.07e6
CCAP-R (Crustacean cardioactive peptide receptor),DRSC15967,1.52e6,1.50e6,1.01e6,1.08e6
